This assay deals with T1, TAP-tagged Bdp1 (S. cerevisiae) (UniProt P46678).
T1 sequence: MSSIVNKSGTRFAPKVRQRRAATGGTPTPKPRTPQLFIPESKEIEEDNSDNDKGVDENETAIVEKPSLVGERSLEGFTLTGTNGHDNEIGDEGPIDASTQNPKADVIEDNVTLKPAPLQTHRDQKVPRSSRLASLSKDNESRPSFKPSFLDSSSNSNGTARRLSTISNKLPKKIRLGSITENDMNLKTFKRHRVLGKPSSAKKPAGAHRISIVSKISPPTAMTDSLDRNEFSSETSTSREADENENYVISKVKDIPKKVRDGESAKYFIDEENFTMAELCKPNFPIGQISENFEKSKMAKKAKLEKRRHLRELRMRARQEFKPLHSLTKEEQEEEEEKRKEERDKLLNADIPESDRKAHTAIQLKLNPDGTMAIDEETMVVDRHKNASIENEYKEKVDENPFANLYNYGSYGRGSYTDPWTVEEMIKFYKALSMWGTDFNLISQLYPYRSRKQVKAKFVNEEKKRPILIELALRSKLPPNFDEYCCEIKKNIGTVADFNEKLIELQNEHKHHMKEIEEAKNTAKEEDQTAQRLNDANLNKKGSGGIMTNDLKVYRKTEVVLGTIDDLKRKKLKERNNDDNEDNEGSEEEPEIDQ
The assay is described as follows: co-IP; Bdp1-TAP purified from yeast cell lysates on IgG sepharose beads, 2 hours at 4°C, three washes with IPP150 buffer, eluted with 0.5 M acetic acid pH 3.5; immunoblot with anti-myc (Hmt1) and anti-Protein A (Bdp1); parallel purification from a strain lacking TAP-tagged proteins as negative control. Background: A western blot detects proteins with antibodies after separation by electrophoresis.

Among the data in publication PMC3568405 are binding values, retold here.

No constants are given. Whether binding was seen depends on the method and setting. Binding seen in cells or lysates may run through a third protein. Some binding calls cover weakened binding; strength is not graded here. Tags and fused reporters may be left off the sequences shown.

B1: myc-tagged Hmt1 (enzyme, UniProt P38074 1-348)
chain: MSKTAVKDSATEKTKLSESEQHYFNSYDHYGIHEEMLQDTVRTLSYRNAIIQNKDLFKDKIVLDVGCGTGILSMFAAKHGAKHVIGVDMSSIIEMAKELVELNGFSDKITLLRGKLEDVHLPFPKVDIIISEWMGYFLLYESMMDTVLYARDHYLVEGGLIFPDKCSIHLAGLEDSQYKDEKLNYWQDVYGFDYSPFVPLVLHEPIVDTVERNNVNTTSDKLIEFDLNTVKISDLAFKSNFKLTAKRQDMINGIVTWFDIVFPAPKGKRPVEFSTGPHAPYTHWKQTIFYFPDDLDAETGDTIEGELVCSPNEKNNRDLNIKISYKFESNGIDGNSRSRKNEGSYLMH
B1: the binding entry is listed as “binds”.
